One experiment addresses T1, GST-HP1c (Drosophila) (UniProt Q9VCU6).
T1 sequence: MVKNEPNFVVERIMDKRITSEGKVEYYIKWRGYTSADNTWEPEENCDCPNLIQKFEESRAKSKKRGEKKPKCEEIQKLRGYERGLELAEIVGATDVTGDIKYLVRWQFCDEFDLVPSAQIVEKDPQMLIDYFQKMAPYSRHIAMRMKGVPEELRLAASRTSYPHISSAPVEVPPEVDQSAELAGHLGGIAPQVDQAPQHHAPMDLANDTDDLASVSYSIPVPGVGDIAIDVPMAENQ
As to the kind of experiment: pull-down; about 3 µg GST or HP1-GST fusion on glutathione sepharose beads; in vitro translated S^35-labeled prey, ethidium bromide 25 ng/µl; washed with CB200; autoradiography; only the target purified.

Chains of the proteins cited; added tags and fusions are not shown. Lines headed by an entry give the natural chain unless they say otherwise; changes in a name come on top.
UniProt P05205: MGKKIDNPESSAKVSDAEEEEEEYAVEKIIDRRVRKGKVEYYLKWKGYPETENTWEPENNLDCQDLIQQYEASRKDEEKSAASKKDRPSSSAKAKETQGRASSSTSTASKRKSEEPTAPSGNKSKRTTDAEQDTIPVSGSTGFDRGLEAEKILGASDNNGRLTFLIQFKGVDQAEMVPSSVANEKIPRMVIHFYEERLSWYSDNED
UniProt P45975: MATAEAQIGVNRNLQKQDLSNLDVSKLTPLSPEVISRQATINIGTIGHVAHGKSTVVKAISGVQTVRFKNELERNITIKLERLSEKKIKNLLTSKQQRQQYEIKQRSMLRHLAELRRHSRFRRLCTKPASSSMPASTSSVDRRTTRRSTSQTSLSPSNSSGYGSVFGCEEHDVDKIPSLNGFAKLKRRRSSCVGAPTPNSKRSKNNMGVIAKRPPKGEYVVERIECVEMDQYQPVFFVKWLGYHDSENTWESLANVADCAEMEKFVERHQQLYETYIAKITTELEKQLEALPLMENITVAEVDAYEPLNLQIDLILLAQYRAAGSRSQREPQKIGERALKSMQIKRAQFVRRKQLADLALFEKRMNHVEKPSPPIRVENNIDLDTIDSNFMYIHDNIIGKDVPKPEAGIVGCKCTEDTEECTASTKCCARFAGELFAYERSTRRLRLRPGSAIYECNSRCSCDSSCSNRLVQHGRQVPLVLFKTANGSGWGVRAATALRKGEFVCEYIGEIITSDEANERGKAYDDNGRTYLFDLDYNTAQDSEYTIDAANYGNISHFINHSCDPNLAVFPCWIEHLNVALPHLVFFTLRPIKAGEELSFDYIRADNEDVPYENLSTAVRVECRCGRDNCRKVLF

The target in the next experiment is GST-HP1a (Drosophila) (UniProt P05205). The experiment is described as above.

Results are given in words; binding and its absence hold for the method and conditions named. Binding seen in cells or lysates may run through a third protein. Some binding calls cover weakened binding; strength is not graded here. For some of these results: Tags and fused reporters may be left off the sequences shown.

On to “in vitro translated Su(var)3–9 (from UniProt P45975 1-635)”, for which the values for the binding entry with GST-HP1c (Drosophila) and with GST-HP1a (Drosophila) were “no binding” and “binds”, respectively.

B1: in vitro translated ACF1 (protein, UniProt Q9V9T4 1-1476)
chain: MPICKREGFDLNQKEGKNETFHDNDQVFCCYITKRIFRDYEHYFRHVMVINSTVWQCEATGKENLTYEEAVKSERAARKKMEQFKQSLRAPVLLVVEHAQQSAVNTLNMIVAKFLRKRYFIGEEVSVQAKKNATYTVLGVKLDKNMPEPLNGIYEDTDNLVYRLRPNKGDPSAELDLPFRQLRRSRMEFNLENLSMFIKSNVSRVDGLLRPKPEAYKQYVTDPGVNFSTIFIGKMPRYSPAKIKKPDGKKQSTLNKYIVAGEATAAKSKAKAKSDAKSLAEELERVKREKEAKLIELEKQKAEKKAQLIERVENECNLLLQKTDDLERTDQKVLPRYRQIVTLLPEHLLGDAFMMREFMHTYTGLLSGIEVFRQNLSFYEMTRALTAREIAGPLSDILLVLLGTVFDLQKEEEEECAVTYLDRAAQTQEPYWSMAQAAKSHLYAKRHFSFKVNELPLDALTLSEVLRLHLLGSGAFVNEKAERWRVMYRNGYSSKEDPGLELRLEHSHILRILKNHSVYQLKFKDIMLLIRCLMSQIMTYSGTINLIEERMEQTAKARQDLRALVVGENKRLAAVEINRKKLTQMHHLEVNGVEPEKREALVEKLKKSIAELHAQSDQQHRKHELQMLKLHSQLFNFLVYLGMDRCYRKYYVLESMPGIFVEHSPDSLDTCLEQPITNKSQIEIRQQSALPKNRKDLRVYLLKLYGDDEKKTKKKAKHSLENKENQEHRLNGSAEPMDVESDSPEAPTHFELLMCSGDKRSCIVHDSRNGQRQRWAYIYKAEEIDELIKALNPNGLREYELLQELSVLRSLIEQHAKTCPVDLLSLENETMRKKFMAAMESETNRKYGEANFGLPNGTDLNEVMRLHLVDRIIQFENDIYTGDLGRLKVKDMEKWRSDLLGGNYDAQCKLQWGPGGKLEDEAGSDNESHETHEEDDGALLGKYARKPYRDPGMYLAASADTKPLPDSDDEEDQHTNAVSIPIAVHNMASALLQVEQAIGKRFLKEPYGMKKWDPKQEALKLACDSRLHQWEVSLMESTSFAQVFLHLNILHDCIQWRRSTNKSLCKVCRRGSDPEKMLLCDECNAGTHMFCLKPKLRSVPPGNWYCNDCVKSLGLSNGQNEKDKKQATKKKRKFIVEEEDDEATDEEEEEKKDDDMTDEDAEHENEKHDEDVEDDESVTSTPSSSRVNGRILRRPRTRPTSRRLTSKEIEEHAQEDVDSGDVSDDASLTAGEDTIEDESDEEKVCQKCFYDGGEIKCVQCRLFFHLECVHLKRPPRTDFVCKTCKPMPQRPRRRHSNMNGDHDRDEEEPKAKRPRNSLRLSIDKTARPSNGNNNNNNNNSSVNNNNHRRSGRRTNEHMPLNSAALYDLLEQIMKHKAAWPFLRPVLTSEVPDYHQIIKTPMDLAKIKSKLNMGAYQLNEELLSDIQLVFRNCDLYNVEGNEIYDAGCQLERFVIDRCRDMQLPFRPSDMNGEVKAC
For B1, the binding result with GST-HP1c (Drosophila) is on record as “no binding”; with GST-HP1a (Drosophila), “binds”.

Values taken from PMC2662408.
